Reference: publication doi:10.1101/2021.12.08.471779
Changes are numbered by the printed parent chain. No constants are given. Whether binding was seen depends on the method and setting. Binding seen in cells or lysates may run through a third protein. Some entries that bind do so weakly or less than the wild type.

By UniProt entry, the sequences of proteins in these tests, tags left out. Where a name states a change or a piece, a line headed by the entry shows the natural chain unless it says otherwise.
UniProt P02929, whole entry, looked up, stated change not applied: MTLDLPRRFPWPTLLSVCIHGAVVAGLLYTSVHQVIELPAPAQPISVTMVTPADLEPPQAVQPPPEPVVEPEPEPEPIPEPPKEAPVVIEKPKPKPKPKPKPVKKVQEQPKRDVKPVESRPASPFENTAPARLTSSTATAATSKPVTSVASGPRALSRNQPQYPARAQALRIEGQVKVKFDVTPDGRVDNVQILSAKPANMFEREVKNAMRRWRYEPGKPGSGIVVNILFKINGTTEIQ

How the values were obtained:
Test in all cases: cross-linking
[1] = biological target: T1, FepA D298C (Escherichia coli K-12) (UniProt P05825)
T1 sequence: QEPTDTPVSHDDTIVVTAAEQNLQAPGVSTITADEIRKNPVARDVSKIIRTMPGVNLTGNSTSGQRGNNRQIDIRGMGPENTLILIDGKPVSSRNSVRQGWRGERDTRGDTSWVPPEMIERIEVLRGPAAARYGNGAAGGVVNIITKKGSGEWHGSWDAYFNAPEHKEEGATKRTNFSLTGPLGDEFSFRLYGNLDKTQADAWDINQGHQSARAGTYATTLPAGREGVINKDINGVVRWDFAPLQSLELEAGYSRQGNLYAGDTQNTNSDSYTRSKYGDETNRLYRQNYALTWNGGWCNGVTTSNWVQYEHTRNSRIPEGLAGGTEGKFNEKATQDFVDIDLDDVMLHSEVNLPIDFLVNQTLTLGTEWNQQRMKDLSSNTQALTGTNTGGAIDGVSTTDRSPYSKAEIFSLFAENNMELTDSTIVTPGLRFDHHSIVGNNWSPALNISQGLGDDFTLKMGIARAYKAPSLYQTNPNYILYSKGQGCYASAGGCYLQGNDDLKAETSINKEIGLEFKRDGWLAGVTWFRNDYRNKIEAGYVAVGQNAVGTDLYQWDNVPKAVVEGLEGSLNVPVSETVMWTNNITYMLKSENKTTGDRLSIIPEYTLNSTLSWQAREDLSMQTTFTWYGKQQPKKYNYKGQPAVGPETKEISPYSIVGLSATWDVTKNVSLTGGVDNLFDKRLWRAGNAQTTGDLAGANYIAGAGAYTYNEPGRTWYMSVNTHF

[2] = biological target: T2, FepA R75C (Escherichia coli K-12) (UniProt P05825)
T2 sequence: T1 sequence with R75C, C298D

[3] = biological target: T3, FepA S92C (Escherichia coli K-12) (UniProt P05825)
T3 sequence: T1 sequence with S92C, C298D

Row | Substance | binding [1] | binding [2] | binding [3]
1 | TonB C18G A209C (from UniProt P02929 1-239) | no binding | no binding | no binding
2 | TonB C18G R214C (from UniProt P02929 1-239) | – | no binding | no binding
3 | TonB C18G H20A R204C (from UniProt P02929 1-239) | binds | – | –
4 | TonB C18G R204C (from UniProt P02929 1-239) | binds | no binding | no binding
5 | TonB C18G R212C (from UniProt P02929 1-239) | – | no binding | no binding
6 | TonB C18G M201C (from UniProt P02929 1-239) | – | no binding | no binding
7 | TonB C18G N208C (from UniProt P02929 1-239) | binds weakly | no binding | no binding
8 | TonB C18G Q160C (from UniProt P02929 1-239) | no binding | no binding | no binding
9 | TonB C18G V206C (from UniProt P02929 1-239) | no binding | no binding | no binding
